In all, about 53,000 sequences went through this assay and about 3,700 (7%) were called active.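 How the source made its calls: active means gene knockdowns whose robust z-score for IL-1 alpha signal is at least 2 or at most -2, so actives lie on both sides; inactive means the rest.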 The list shows a part of the results.

The experiment in a line: Components of the Cytosolic LPS Sensing Pathway: Gene Identification via Genome-wide siRNA Screen.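 Further: robust z of the log signal after scaling to non-targeting control siRNA wells of the plate.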 To be noted: RAW264.7 macrophages, IL-1a HTRF, actives lie on both sides, screened at 100 nM (by protocol), cells primed 5 h with Pam3CSK4 first. A digest of the protocol:
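Knockdown: 100 nM siRNA, 48h, RAW264.7. Stimulation: Pam3CSK4 5 h, then LipidA via TransIT-TKO 24 h. Output: supernatant IL-1a HTRF, negative-control-normalized, log robust z-score; viability by CellTiter-Glo.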
Take GGCUUGUUUUGCCCAGAUGTT against Olfr398: the z-score is active: -2.94.
With “GGUGUCUCUGAAUGAUGGCTT against 1810009J06Rik” the figure was inactive: 0.499; with CCCACGUAAGAAAAAUAGCTT against Ccdc14, inactive: -1.2.
Then CCAACGUGCUGAAUUAUUATT against Irx3os, with inactive: -0.0713.
For CGUAGUCCUGUAUCCUCUATT against Aip, the z-score was inactive: 1.37.
Then GGAACUGAAGCUCCUACAATT against Inka2, with inactive: 1.67; and GCUAAAAUAUUAGGGAAGCTT against Timm29, with inactive: 0.429.
On to GGAUGAGUUUGACAAGCUGTT against Rhou, for which the z-score is inactive: -0.735.
With GGUAUUGGGUUCCAUUAUATT against Mcmdc2 the figure was inactive: -0.197; with GCUCAAGUAAUAGAAACUUTT against Fam98a, inactive: -0.0485.
GGUCAAUGAGUUAGCAAUATT against Olfr1143: the z-score is inactive: 0.36.
For the sequence GGGAUCUUUUACUCAUACUTT against Olfr862, the z-score was inactive: -1.95.
For GGCAGAAAAGAGAUGUUCUTT against Mien1, the z-score was inactive: 0.893.
As for GCAGAUAAGAGUUCAAAUCTT against Oxa1l, the z-score was inactive: -0.499.
Then GGAGAAGGAUGAAGACGGATT against Map1lc3a, with inactive: 0.397; and GGAGGAGUCCCAUAACUCATT against Cby2, with inactive: 1.05; and GGCCCUAAUAGCAACAGGATT against Ubqln2, with inactive: -1.31.
For the sequence GGAGACACUGAAUGUGACATT against Ttyh1, the z-score is active: -2.03.
Consider “GGACAAUGUGAGUUUCCUGTT against 5330439B14Rik”, for which the z-score is inactive: -1.02.
Turning to GGGUCUCAAAGCAGUUUUUTT against Rhoj, the z-score is active: 3.99.
In the case of GUAUGAUCUUUAAACUCCATT against Ppp1r13l, the z-score was inactive: 0.113.
For GGGCUUCACUUCCUUAGGATT against Cog3, the z-score is inactive: 0.0276.
Take CGUAAUUAAUCAACAGCCATT against St8sia2: the z-score was inactive: 0.189.
With GCGUUGAAACCACUUUGUATT against Tmprss11c the figure was inactive: 0.221; with GGCGUAUCAUUUUAUCGACTT against Phlda3, inactive: 0.000603; with GGAACUCAUGUGAAGCUCCTT against Ssu72, inactive: -0.544.
Then GGAUGAAAGCAAAGACAAGTT against Zscan21, with active: 2.63; and GGAGCAGAUGAGAUCCAAGTT against Cdc42se1, with inactive: -0.256; and GCAGAUAGAGAUGAAGCUGTT against Phactr3, with inactive: 0.648.
With GGCUUAGAGCUUCCUCUAATT against Adprhl1 the figure was inactive: 0.386; with GCAAAUCGAGGACAGAAUUTT against Trim66, inactive: -0.498.
Regarding CGUGAAGAAAAACGGGUUUTT against Snrpn, the z-score is inactive: -0.355.
With GGAGGUUAUCAGAUAUGCATT against Edar the figure was inactive: 0.682; with GCUUCAGGAUAUUGUAAAGTT against Olfr1459, inactive: -1.28; with GGUCCUACAAAAAGAUGGATT against Mettl7b, inactive: -0.536.
Then GCUCAGAUGUAUGUAUUCATT against Olfr247, with inactive: -0.846; and GCUUGAAUGUUGAGUGGAGTT against Mup3, with inactive: -1.51.
Then GGGAAUCUUCCGUUUAAGUTT against Pcdhga10, with inactive: 1.25; and CGAGAUCUCCGUCGAGUAATT against Brf2, with inactive: 0.548; and “GGUAUCCUGUAACUACUCUTT against D130020L05Rik”, with inactive: -0.912.
As for GGAUGAAGACGACUAUCCCTT against Lat, the z-score is inactive: 1.
With UGGACUUGCUUCUCACAUCTT against Olfr694 the figure was active: -2.22; with “GGAUUGUGCUAACCUGCUGTT against 1600014C10Rik”, inactive: 0.208; with CGACAUGAGCAACGUAGUCTT against Ccdc57, inactive: -0.628.
Then CGCCACAGACAUUCAGUUATT against Sec23ip, with inactive: -0.93.
Then GUUCUAGGCCUCCUGAAGCTT against Dohh, with inactive: -0.808.
Consider GGCAUCAUCGCCAUCUUCATT against Prrt1, for which the z-score was inactive: -1.08.
For the sequence GGUGCAAACAGACACCAGATT against Dct, the z-score was inactive: -0.982.
As to GCGAACAGAAAAGACCAAUTT against Col4a5, the z-score is inactive: -0.346.
Turning to GGAGGAAGAAACAGACAUCTT against Nup37, the z-score is inactive: 0.32.
As for GGCCCUAGAAAUAAUCUGCTT against Anks4b, the z-score is inactive: 0.0338.
With GGACAAGAUGUUGAGUAUUTT against Plrg1 the figure was active: -2.23; with UUAUGUGGCACAAAUAAAUTT against Olfr138, inactive: -1.4; with GGAACACUGGUAACUGUAATT against Stradb, inactive: 0.324.
Then GGAGGAUCAGUGAGAUUAATT against Wbp4, with inactive: 0.572; and GGAUAGUCUCAGUAACUAUTT against Grin2a, with inactive: -1.32; and GGAAGCCAUGACAUUCAAGTT against Zfp286, with inactive: -0.471.
In the case of GGUGAGCAAAGCCAAGAAGTT against Sgpl1, the z-score was inactive: -1.42.
On to GGUCAUGUGUGGUUACAUUTT against Depdc5, for which the z-score was inactive: -1.54.
Then GCCGAGCUUUUGUGAGUAUTT against Rhobtb2, with inactive: 0.247; and GGUACAAACGUAAGGCCUATT against Leng1, with inactive: -0.853.
With GCCAACCUUCGUAAGACACTT against Dgkz the figure was inactive: -0.347; with GGAUUGACAGUGGUCUAUATT against Copz1, inactive: -0.294; with GGCAACCAUAGACGAUGAATT against Rerg, active: -2.38.
With GGCAGCUGAAAGAAGAUCUTT against Dffa the figure was active: 3.21; with GCUGUCGUCUCGUAAUAGUTT against Itprip, inactive: 1.63; with GGACUAUUGUCUCAUUUGATT against Olfr1189, inactive: 1.04.
For the sequence ACAUUGUAAUUCUCACCGUTT against Olfr1322, the z-score is inactive: 1.12.
With GGAAUGUCUCCUGUCUGUGTT against Pttg1ip the figure was inactive: 0.124; with GCGGGAACAAGUUGAUAGATT against Pspc1, inactive: -1.35.
With GGCUUUUAUCCCAACAGUGTT against Mbnl3 the figure was inactive: -0.475; with GGUCACAUCGUCCUUACAGTT against Rps6ka4, active: -2.05.
With GGAACAGAUGUGGUUAUAATT against Iars2 the figure was inactive: 1.14.
As for GGUGGACAUGUGGAAUGAUTT against Ubxn11, the z-score was inactive: 0.463.
Then GGAAGUGAGGAACUGUGUCTT against Prodh2, with inactive: -1.34; and GGAGAUUUUGAAUAGUAUCTT against Smc4, with inactive: 1.47; and GGGUAUACCUAUCAUAGUATT against Gnl3l, with inactive: 0.0775.
For the sequence GGAGGAAGCUCAUCUAUGATT against Rpl7, the z-score is inactive: 0.964.
Consider CCUCGUUCCAAUCAAGCCUTT against Ftsj3, for which the z-score is inactive: 1.45.
On to GGAAGUAGGAUAUUUACACTT against Sypl2, for which the z-score was inactive: 1.8.
As to GGUGCCAUUGACAUUUAAUTT against Tut7, the z-score was inactive: -0.0865.
Then GGUUCUCGUGUGGCACACUTT against B3gat2, with inactive: 0.126; and CCACACUCUUGGAAUUACGTT against Gsg1, with inactive: -1.22.
On to GGUCAUCAGUGAGCUGAAUTT against Rplp2, for which the z-score was inactive: 0.125.
On to GGCUGAGAAUUACUUAAACTT against Ift43, for which the z-score was inactive: -0.796.
With GGAAUGCUAUGUGUAUAGUTT against Slc38a9 the figure was inactive: -0.423.
As to AAAACAACCUAUUCAAGGATT against Klk1b3, the z-score is inactive: 1.04.
As for GGAAAUUACGCAUAUCCAUTT against Cntn1, the z-score is inactive: 0.843.
Then GCGUGCUUCUGUUUACCAUTT against Hnrnpl, with inactive: -0.711; and CCUUCUAAUUAUCACCAAATT against Arhgap18, with inactive: -0.102; and GCAUGGCCAAUCUACCCUUTT against Bcl9l, with inactive: -0.463.
On to GGAAAAAAUCACAUUGACUTT against H2ac6, for which the z-score is inactive: -0.835.
As for GGCAAUUCUGGAGGCUCUUTT against Ubqln1, the z-score was inactive: -0.746.
As for GGUGAAAUCCGUUACUUUGTT against Bloc1s5, the z-score is inactive: -0.557.
CCAUCUACAAGUGUCCUUATT against Zfp276: the z-score was inactive: -0.632.
With GCAGAAACCUCAUCACUAATT against Bambi the figure was inactive: -1.32; with GGUGAAUGAAACUUUCUGUTT against Adamts13, inactive: 0.264; with GGAGAAACCAGCUAAAGGATT against Car9, inactive: -0.235.
Consider CCUGAGCUAGAAUCUCAGATT against Zmat2, for which the z-score was inactive: 0.715.
As for GAGAUGUCGAUGCAAAUUCTT against Fxyd1, the z-score was inactive: 0.389.
Take GGAUUUUCACUUUUACUCUTT against Fam199x: the z-score is inactive: -0.715.
Then GGACAAGAACUUAGUGAUGTT against Emc9, with inactive: 0.522; and GGACAUCAUUACAAAGAUGTT against Rgs6, with inactive: -0.608; and GGCAUGUUUCUACAUCUUATT against Rgs12, with inactive: 0.455.
As for GCAAUGGUUCUCUUCAACCTT against Ppp3cb, the z-score was inactive: -0.679.
On to CGUGCACUGGAGAUUCCAUTT against Slc41a1, for which the z-score was inactive: -0.329.

Source of the values: PubChem BioAssay AID1508600 (Functional Genomics Laboratory (NCATS/FGL), 2020).
